Test results from patent publication US20100178296A1.
These are yes or no findings as the source states them, for the method shown. For some of these results: In cells and extracts the contact can be indirect. Some results given as binding are weak or reduced against the parent protein; the word gives no strength.

Sequences of proteins named here, by UniProt entry; tags and fusion partners are left off. Residues count along the entry.
UniProt O54885, residues 22-114: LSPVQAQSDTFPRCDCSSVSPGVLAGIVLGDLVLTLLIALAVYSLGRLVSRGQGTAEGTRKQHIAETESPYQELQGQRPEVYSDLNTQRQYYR

How the values were obtained:
[1] = biological target: T1, cynomolgus CD200RLa expressed on mouse mast cells or on Ba/F3 cells with human DAP12 (cynomolgus monkey); test: immunoprecipitation from surface-biotinylated mouse mast cell transfectants
T1 sequence: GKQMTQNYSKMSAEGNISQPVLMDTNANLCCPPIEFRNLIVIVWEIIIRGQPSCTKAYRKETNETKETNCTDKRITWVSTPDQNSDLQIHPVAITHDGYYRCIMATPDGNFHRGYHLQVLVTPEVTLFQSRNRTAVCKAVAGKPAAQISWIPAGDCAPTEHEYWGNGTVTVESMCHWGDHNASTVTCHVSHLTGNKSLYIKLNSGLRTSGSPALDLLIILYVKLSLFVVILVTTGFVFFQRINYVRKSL

[2] = biological target: T1, cynomolgus CD200RLa expressed on mouse mast cells or on Ba/F3 cells with human DAP12 (cynomolgus monkey); test: immunoprecipitation from lysate of surface-biotinylated mouse mast cells expressing cynomolgus CD200RLa, blot with streptavidin-HRP
[3] = biological target: T2, cynomolgus CD200RLa (form in the assay not stated) (cynomolgus monkey); test: ELISA or flow cytometry (not told which)
T2 sequence: T1 sequence

[4] = biological target: T1, cynomolgus CD200RLa expressed on mouse mast cells or on Ba/F3 cells with human DAP12 (cynomolgus monkey); test: flow cytometry on mouse mast cell and Ba/F3-DAP12 transfectants
[5] = biological target: T1, cynomolgus CD200RLa expressed on mouse mast cells or on Ba/F3 cells with human DAP12 (cynomolgus monkey); test: flow cytometry on Ba/F3 cells with human DAP12 transfected with cynomolgus CD200RLa
[6] = biological target: T1, cynomolgus CD200RLa expressed on mouse mast cells or on Ba/F3 cells with human DAP12 (cynomolgus monkey); test: flow cytometry on mouse mast cells transfected with cynomolgus CD200RLa
[7] = biological target: mouse DAP12, endogenous in mouse mast cells (mouse) (UniProt O54885); test: co-immunoprecipitation with DX182, Western blot with rabbit anti-mouse DAP12
[8] = biological target: mouse DAP12, endogenous in mouse mast cells (mouse) (UniProt O54885); test: co-immunoprecipitation with DX182, Western blot for DAP12

B1: DX182, rat anti-human inhibitory CD200R monoclonal antibody (antibody, V domains shown)
VL: EVQMTQSPSTLTASPGESVSINCKASKNIRSYLAWYQQKPGKPNKLLIYSGSTLHSGTPSRFSGSGFGTDFTLTIRNLEPEDFGLYYCQQHHEYPLTFGSGTKLEIKR
VH: EIQLQESGPGLVKPSQSLSLTCSVTGYTITSGYDWSWIRKFPGNKMEWMGYINYGGSTNYKPSLGSRISITRDTSKNQFFLQLNSVSPEDTATYYCAKYNEYKSYIYDWYFDFWGPGTMVTVSS
[1]
  binding: binds
[2]
  binding: binds
[3]
  binding: binds
[4]
  binding: binds
[5]
  binding: binds
[6]
  binding: binds

B2: cynomolgus CD200RLa expressed on mouse mast cells or on Ba/F3 cells with human DAP12 (receptor)
chain: T1 sequence
[7]
  binding: binds
[8]
  binding: binds

B3: DX185, rat anti-human inhibitory CD200R monoclonal antibody (antibody, V domains shown)
VH: EIQLQESGPGLVKPSQSFSLTCSVTGYTITSGYDWSWIRKFPGNRMEWMGYINYSGSTVYNPSLRSRFSITRDTSKNQFFLQLNSVASEDTATYYCAKFEASNTYLYDWYFDFWGPGTMVTVSS
VL: DVQMTQSPSYLAASPGESVSISCKAGKNINTNLAWYQAKPGKTNKVLIHSGSTLQSGTPSRFSGSGFGTDFTLTIRSLEPEDFAVYYCQQHNEFPLTFGSGTKLEIKR
[3]
  binding: binds

B4: DX184, rat anti-human inhibitory CD200R monoclonal antibody (antibody, V domains shown)
VL: DIVMTQSPTFMSISVGDRVTMSCKASQNVGSNVDWYQQKTGQSPKLLIYKASNRYTGVPDRFTGSGSGTGFTFTITNLQAEDLAVYYCMQSLSFPYTSGAGT
VH: QVQLKESGPGLVQPSQTLSLTCTVSGFSLTNNGVSWVRQPPGKGLEWIAAISSGGGTFYNSALKSRLSISRDTSKSQVFLKMNSLQTEDTAIYFCARDGDWDWYFDFWGPGTMVTVSS
[3]
  binding: binds
